Earlier results as cited in patent publication US20070167418A1 (priority 2004, published 2007).
At least one structure is not confirmed: it was looked up by name or label, or the drawing left a doubt.

Experiments:
[1] = in vivo
men with ED [2] = settings: 20 mg; at thirty-six hours; placebo twenty-eight percent
men with ED [3] = settings: 20 mg; placebo twenty-two percent

Structure (SMILES)	time for which erectile function continues to be enhanced [1]	men successfully reporting intercourse (men with ED [2])	men successfully reporting completing intercourse (men with ED [3])
CN1CC(=O)N2[C@H](c3ccc4c(c3)OCO4)c3[nH]c4ccccc4c3C[C@@H]2C1=O [tadalafil]	at least thirty-six	fifty-nine	
CCCc1nc(C)c2c(=O)[nH]c(-c3cc(S(=O)(=O)N4CCN(CC)CC4)ccc3OCC)nn12 [vardenafil]			sixty-nine
